According to paper PMC10616111:
Results are given in words; binding and its absence hold for the method and conditions named. In cells and extracts the contact can be indirect. A yes stands for co-enrichment or nearness to the bait. Other partners may have been found.

Sequences of proteins named here, by UniProt entry; tags and fusion partners are left off. A change or cut given only in a name is not applied to a line headed by its entry.
UniProt P52895: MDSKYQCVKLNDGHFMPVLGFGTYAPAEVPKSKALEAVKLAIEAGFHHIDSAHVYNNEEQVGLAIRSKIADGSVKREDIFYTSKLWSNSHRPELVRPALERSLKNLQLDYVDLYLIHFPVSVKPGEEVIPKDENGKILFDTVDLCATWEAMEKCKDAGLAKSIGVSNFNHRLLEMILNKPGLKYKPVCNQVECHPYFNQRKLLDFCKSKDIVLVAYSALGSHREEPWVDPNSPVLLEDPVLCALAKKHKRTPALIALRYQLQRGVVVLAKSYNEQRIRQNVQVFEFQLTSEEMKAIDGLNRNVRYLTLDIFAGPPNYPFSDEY
UniProt P46937: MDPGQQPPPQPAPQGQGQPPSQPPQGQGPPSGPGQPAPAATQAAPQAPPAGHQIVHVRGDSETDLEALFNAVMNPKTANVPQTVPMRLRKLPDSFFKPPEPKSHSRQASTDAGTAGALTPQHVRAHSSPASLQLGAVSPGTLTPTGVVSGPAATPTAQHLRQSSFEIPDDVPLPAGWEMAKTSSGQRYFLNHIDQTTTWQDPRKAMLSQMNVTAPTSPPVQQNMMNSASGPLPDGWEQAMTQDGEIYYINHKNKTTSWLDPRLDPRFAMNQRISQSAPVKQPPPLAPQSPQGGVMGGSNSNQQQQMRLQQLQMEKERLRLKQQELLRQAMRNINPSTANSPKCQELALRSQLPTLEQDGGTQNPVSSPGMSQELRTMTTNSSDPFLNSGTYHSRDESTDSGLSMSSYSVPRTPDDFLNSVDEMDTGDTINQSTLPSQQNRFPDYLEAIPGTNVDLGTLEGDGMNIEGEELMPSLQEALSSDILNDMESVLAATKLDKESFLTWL

Molecular target: pep-AKR1C2 (163-aa microprotein encoded by lncAKR1C2), Flag-labelled (human) (UniProt P52895)
Assay: affinity purification with mass spectrometry; co-IP of Flag-labelled pep-AKR1C2 combined with LC-MS/MS (Q Exactive); silver staining of the precipitate

YAP (Yes-associated protein) (from UniProt P46937 1-504)
binding: binds
